# Experimental data taken from PubChem BioAssay AID1439 (NMMLSC, 2008).
# Chains of the proteins cited; added tags and fusions are not shown.
# UniProt P09471, whole entry, looked up: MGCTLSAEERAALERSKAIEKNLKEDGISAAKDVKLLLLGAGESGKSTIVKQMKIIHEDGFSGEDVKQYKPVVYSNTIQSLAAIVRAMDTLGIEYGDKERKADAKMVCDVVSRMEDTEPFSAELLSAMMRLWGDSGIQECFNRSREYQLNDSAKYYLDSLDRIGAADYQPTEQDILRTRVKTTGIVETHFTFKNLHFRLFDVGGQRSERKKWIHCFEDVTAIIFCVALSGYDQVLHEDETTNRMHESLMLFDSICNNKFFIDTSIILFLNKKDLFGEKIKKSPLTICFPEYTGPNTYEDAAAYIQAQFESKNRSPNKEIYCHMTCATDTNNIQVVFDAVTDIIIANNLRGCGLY
# Hit rate of the full screen: of about 220,000 compounds, about 770 (0.35%) were called active. Inconclusive means that the source gave no clear call. Such entries were picked first, then a sample of the others. Rule as the data show it: active = binding response below about 49% or above about 150%; inconclusive = no clear call, values can overlap the other calls; inactive = in between.
# Molecular target: Guanine nucleotide-binding protein G(o) subunit alpha (Homo sapiens) (UniProt P09471)
# Assay: RGS7-Galphao binding modulators, primary screen, biochemical, multiplexed bead flow cytometry (AID 1439);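 also: fluorescent Galphao held in activated GDP-AlF4 state binding bead-coupled RGS7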
# Conditions: at 10 µM, actives lie on both sides
row,SMILES,binding response (% of control)
1,CCOC(=O)c1c(C)[nH]c(C)c1C(=O)COC(=O)CNC(=O)c1ccc(OCC)cc1,inactive: 97%
2,CC(C)NC(=O)c1ccc2c3n(nc2c1)-c1ccccc1CO3,inconclusive: 86%
3,CCN(CC)Cc1c(-c2ccccc2)[nH]c2ccc(C)cc2c1=O,inactive: 104%
4,C/C(=N\NC(=O)Cn1cc([N+](=O)[O-])cn1)c1ccco1,inconclusive: 318%
5,COC(=O)CSc1nc2cc(OC)ccc2n1C,inconclusive: 108%
6,O=C(O)c1ccc(N=Cc2c(O)ccc3oc4c(c23)CCCC4)cc1,inconclusive: 104%
7,O=C(CN1CCN(Cc2ccccc2)CC1)N/N=C/c1ccc(Br)s1,inconclusive: 153%
8,CCCCC[n+]1ccn(C2=C([O-])c3ccccc3C(=O)/C2=N\S(=O)(=O)c2ccccc2)c1,inactive: 104%
9,Cc1cc(C)cc(NC(=O)N2CCCCCCC2)c1,inconclusive: 105%
10,Cc1ccc(Cn2ccc(C3CC3)n2)cc1,inconclusive: 107%
11,CC1CN(C(=O)COC(=O)c2ccc(N(C)C)cc2)CC(C)O1 (centres undefined),inactive: 89.2%
12,c1nnc(-c2ccc3c(c2)OCO3)o1,inconclusive: 80.8%
13,CCCCCC(=O)Nc1cccc(C2=NOC3(C2)C[C@H](C(N)=O)N(C(=O)CC)C3)c1 (some centres undefined),inconclusive: 95.5%
14,COc1ccccc1CC(=O)NCC(c1ccco1)N1CCCCC1 (centres undefined),inconclusive: 84.3%
15,CCOC(=O)N1CCC(Nc2c(NCCCN3CCN(c4ccc(OC)cc4)CC3)c(=O)c2=O)CC1,inconclusive: 69.7%
16,Cc1nn(C(C)(C)C)c(OC(=O)c2ccco2)c1Sc1ccccc1,inactive: 92.4%
17,O=C(CSc1ccc(-c2ccncc2)nn1)N1CCN(c2ccccc2)CC1,inactive: 90.1%
18,CNS(=O)(=O)c1cccc(C(=O)OCC(=O)Nc2ccc(Cl)cn2)c1,inconclusive: 90.8%
19,CC/C(=N\NC(=S)NC(C)C)c1ccc(OC(F)F)cc1,inconclusive: 103%
20,C=CCNC(=S)/C(=C(\[O-])c1ccc(Cl)cc1)[n+]1ccccc1,inconclusive: 161%
21,CN(N)c1ccc2c(C(F)(F)F)cc(C(F)(F)F)nc2n1,inconclusive: 80.1%
22,O=C1/C(=C/c2cccs2)SC(=S)N1C1CCS(=O)(=O)C1 (centres undefined),inconclusive: 92.3%
23,Nc1nc(NS(=O)(=O)c2ccc(Cl)cc2)nn1-c1ccccc1,inconclusive: 75.4%

row,SMILES,binding response (% of control)
1,CCOC(=O)C1CCN(C(=O)c2cc(C(C)(C)C)nn2Cc2ccccc2)CC1,inconclusive: 70.2%
2,N#Cc1cccc(C#N)c1Oc1ccc(N)cc1,inconclusive: 94.7%
3,CC(C)(C)C(=O)NNC(=O)c1cc2sccc2s1,inconclusive: 87.9%
4,Cc1ccc(NC(=O)c2cc(-c3cccs3)nc3ccccc23)nc1,inconclusive: 92.7%
5,Oc1ccccc1/C=N/NC(=S)NC1CC2C=CC1C2 (centres undefined),inconclusive: 85.6%
6,CCc1nc2oc3ccccc3c(=O)c2c(=O)n1-c1ccc(C)cc1,inconclusive: -401%
7,Cc1ccc(-c2nc(CSCC(=O)N3CCN(C(=O)c4ccco4)CC3)c(C)o2)cc1,inactive: 98.3%
8,CNc1nnc(-c2ccco2)s1,inconclusive: 97.6%
9,Cn1nc(OCC(=O)O)cc1C(F)(F)F,inconclusive: 119%
10,NS(=O)(=O)c1ccc(NC(=O)COC(=O)CNC(=O)C23CC4CC(CC(C4)C2)C3)cc1,inconclusive: 117%
11,COc1cc(C2c3c(-c4ccccc4O)n[nH]c3C(=O)N2Cc2ccco2)cc(OC)c1OC (centres undefined),inconclusive: 107%
12,Cc1cc(Cl)ccc1OCC(=O)Nc1nc(-c2cccnc2)cs1,inconclusive: 5.64%
13,O=C(NCCCn1ccnc1)c1cc(S(=O)(=O)N2CCOCC2)c(Cl)cc1Cl,inactive: 102%
14,CN(C)c1cccc(NC(=O)c2ccco2)c1,inactive: 100%
15,COc1ccccc1NC(=O)CN(c1ccc([N+](=O)[O-])cc1)S(=O)(=O)c1ccccc1,inactive: 78.8%
16,Cc1nc([N+](=O)[O-])c(C(=O)OCc2cccc(Br)c2)n1C,inactive: 102%
17,COc1cccc(N=C2SC(CC(=O)Nc3ccccc3)C(=O)N2Cc2ccccn2)c1 (centres undefined),inconclusive: 110%
18,CCOCCCNC1=C(Cl)C(=O)c2ccccc2C1=O,inconclusive: 6.56%
19,NC(=O)c1ccsc1NC(=O)CCS(=O)(=O)c1ccccc1,inconclusive: 103%
20,CN1C(=O)C(O)(CC(=O)c2ccccc2O)c2cc(Br)ccc21 (centres undefined),inactive: 112%
21,O=C(NCc1ccccc1)c1ccc2nnsc2c1,inconclusive: 63%
22,CC(=O)NC1C(=O)N(Cc2ccccc2)c2ccc(Br)cc21 (centres undefined),inconclusive: 93.5%
23,CCCCN(CC)C(=S)Nc1ccc2nc(N3CCN(C)CC3)cc(C)c2c1,inconclusive: 119%

row,SMILES,binding response (% of control)
1,COc1ccc(CONS(=O)(=O)c2ccc(NC(C)=O)cc2)cc1Cl,inactive: 105%
2,O=C(C(=O)c1cccnc1)c1cccnc1,inconclusive: 99.9%
3,COc1ccc(C(CC(=O)N2CCCC2)c2c(OC)cc(OC)c3ccc(=O)oc23)cc1 (centres undefined),inconclusive: 114%
4,O=S(=O)(c1cccc(-c2csc(N/N=C/c3ccco3)n2)c1)N1CCOCC1,inconclusive: 85.6%
5,O=S1(=O)CCC(N=Nc2c(O)n(Cc3ccccc3)c3ccccc23)C1 (centres undefined),inconclusive: 110%
6,Cc1cn2c(N)c(C=C3C=C(Cl)C(=O)C(Cl)=C3)c(=O)nc2s1,active: 473% [activator]
7,CCOc1ccc(-n2nc3c(SCCN4CCCC4)nnc(C)c3c2C)cc1,active: 210% [activator]
8,COc1ccc(CCNC(=O)COC(=O)/C=C/c2ccc(OC)c(OC)c2)cc1,inactive: 101%
9,COC(=O)c1ccccc1S(=O)(=O)N1CCC(C(=O)OCC(=O)NCC(F)(F)F)CC1,inconclusive: 99.8%
10,Cc1ccc(-c2nnc(N3CCN(C(=O)COc4cccc(C)c4)CC3)c3ccccc23)cc1,inconclusive: 90.1%
11,CC(C)Cc1nnc(NC(=O)CCC(=O)N2CCN(c3ccccn3)CC2)s1,inactive: 102%
12,NC(=O)c1ccc(-c2ccccc2F)cc1,inconclusive: 109%
13,Cn1c(N)c(C(=O)COC(=O)C2(c3ccccc3F)CCCC2)c(=O)n(C)c1=O,inactive: 100%
14,CN(C)c1ccc(/C=C2\C(=N)N3C(=NC2=O)Sc2cc(S(C)(=O)=O)ccc23)cc1,inconclusive: 118%
15,Cc1noc(C(F)(F)F)c1C(=O)NNC(=O)c1cccc(C(F)(F)F)c1,inconclusive: 76.8%
16,O=C(c1cccc(C(F)(F)F)c1)c1c[nH]c(C(=O)NCC2CCCO2)c1 (centres undefined),inconclusive: 88.1%
17,CCN1CCc2c(sc(NC(=S)NC(=O)c3ccco3)c2C(N)=O)C1,inconclusive: 94.2%
18,CCN(C(=O)CSc1nc2ccccc2n1CCc1ccccc1)C1CCS(=O)(=O)C1 (centres undefined),inactive: 98.8%
19,Cc1cc(C)nc(N/N=C/c2cc(Br)ccc2O)n1,inconclusive: 290%
20,Cc1nc(SCC(=O)N2CC(=O)Nc3ccccc32)nc(C)c1C,inconclusive: 91.2%
21,C=CCN1c2ccccc2[C@]23C[C@@H](C(=O)OC)N(C(C)=O)C2=NC(C(=O)OC)=C(C(=O)OC)[C@H]13,inconclusive: 96.2%
22,CC(C)[C@H](NC(=O)c1ccco1)C(=O)OCC(=O)Nc1ccc(Cl)c(S(=O)(=O)N(C)C)c1,inconclusive: 116%
23,Cc1onc(-c2c(Cl)cccc2Cl)c1C(=O)O/N=C(\C#N)c1c(Cl)cccc1Cl,inconclusive: 100%

# Given with tabs: entries from further up.
row	SMILES	binding response (% of control)
5	O=S1(=O)CCC(N=Nc2c(O)n(Cc3ccccc3)c3ccccc23)C1 (centres undefined)	inconclusive: 110%
6	Cc1cn2c(N)c(C=C3C=C(Cl)C(=O)C(Cl)=C3)c(=O)nc2s1	active: 473% [activator]
7	CCOc1ccc(-n2nc3c(SCCN4CCCC4)nnc(C)c3c2C)cc1	active: 210% [activator]

# Quoted at random: 2 records from the list.
row,SMILES,binding response (% of control)
7,CCOc1ccc(-n2nc3c(SCCN4CCCC4)nnc(C)c3c2C)cc1,active: 210% [activator]
2,O=C(C(=O)c1cccnc1)c1cccnc1,inconclusive: 99.9%

# Additional structures follow.

row,SMILES,binding response (% of control)
1,COc1cc(/C=C2\CCCc3c2nc2ccccc2c3C(=O)O)cc(OC)c1O,inconclusive: 119%
2,Oc1c(C=C2N=c3ccccc3=N2)sc(=S)n1-c1ccc2ccccc2c1,inconclusive: 99.4%
3,O=C(NNC(=O)c1cc2cc(OC(F)(F)F)ccc2[nH]1)c1cccc(C(F)(F)F)c1,inconclusive: 102%
4,O=C(c1ccc(=O)oc1)N1CCC(C(O)(c2ccccc2)c2ccccc2)CC1,inconclusive: 73.3%
5,O=c1cc(CSc2nnc(COc3ccccc3)n2-c2ccccc2)c2ccccc2[nH]1,active: -15.3%
6,CSc1ccccc1C(=O)N1CCN(c2ncccn2)CC1,inactive: 98.6%
7,C#Cc1cccc(NC(=O)c2ccc(Cl)cc2Cl)c1,inconclusive: 118%
8,CC(CCc1ccccc1)NC(=O)CNC(=S)N(Cc1cccs1)C1CCCC1 (centres undefined),inactive: 105%
9,O=C(O)C1Sc2[nH]c(=O)sc2C2c3ccc(O)cc3OC(=O)C12 (centres undefined),inconclusive: 113%
10,O=C(Nc1ccc2ccccc2n1)C1CCCCC1,inconclusive: 96.2%
11,Cc1cc2cc(CNC(=O)c3ccc(C)c([N+](=O)[O-])c3)ccc2[nH]1,inactive: 101%
12,O=C(Nc1cccc2ccccc12)N1CCOCC1,inactive: 106%
13,O=C1CCC(=O)N1OCCOc1ccc(Cl)c2ccccc12,inconclusive: 80.9%
14,CSc1nc(-c2ccccc2)nc(NC(C)=O)c1C(C)=O,inconclusive: 87.5%
15,CC(C)C(NS(=O)(=O)c1cccc2nsnc12)C(=O)Nc1nccs1 (centres undefined),inconclusive: 93%
16,CC(=O)Nc1ccc(NC(=S)NC(=O)/C=C/c2ccccc2)cc1,inconclusive: 110%
17,COc1ccc(/C=C/C(=O)O)cc1S(=O)(=O)NCc1ccco1,inconclusive: 103%
18,CC(=O)c1ccc(N=Nc2ccc(N)cc2)cc1,inconclusive: 98.1%
19,NC(=O)CC(NC(=O)Cc1ccc(Br)cc1)c1ccc(NCc2ccccn2)c([N+](=O)[O-])c1 (centres undefined),inconclusive: 101%
20,C=CCNC(=S)/C(=C(/[O-])c1ccccc1Br)[n+]1ccccc1,inactive: 89.1%
